The supplement of paper PMC10077471
Over roughly 1,900 compounds, “excess over highest single agent (ExcessHSA) synergy score, 6x6 matrix” has its median near -83; the lowest 2% begin near -370. The list shows a part of the results.

The molecules below were run on NCI-H446 (assay: excess over highest single agent (ExcessHSA) synergy score, 6x6 matrix; higher = less synergy (more negative = stronger synergy)). Details: 72 h; CellTiter-Glo viability.

Row | Compound | excess over highest single agent
1 | C=C1c2cccc(O)c2C(O)=C2C(=O)[C@@]3(O)C(O)=C(C(N)=O)C(=O)[C@@H](N(C)C)[C@@H]3[C@@H](O)[C@H]12 + Cc1sc2c(c1C)C(c1ccc(Cl)cc1)=N[C@@H](CC(=O)OC(C)(C)C)c1nnc(C)n1-2 [NCGC00250412-19] | 5.13
2 | Cc1cc2c(C(C)C)c(O)c(O)c(C=O)c2c(O)c1-c1c(C)cc2c(C(C)C)c(O)c(O)c(C=O)c2c1O + Cc1sc2c(c1C)C(c1ccc(Cl)cc1)=N[C@@H](CC(=O)OC(C)(C)C)c1nnc(C)n1-2 [NCGC00250412-19] | -203
3 | Cn1c(=O)c(Oc2ccc(F)cc2F)cc2cnc(NC3CCOCC3)nc21 + Cc1sc2c(c1C)C(c1ccc(Cl)cc1)=N[C@@H](CC(=O)OC(C)(C)C)c1nnc(C)n1-2 [NCGC00250412-19] | -79.8
4 | C[C@@H]1COC(Nc2ccc3ncnc(Nc4ccc(OCc5nccs5)c(Cl)c4)c3c2)=N1 + Cc1sc2c(c1C)C(c1ccc(Cl)cc1)=N[C@@H](CC(=O)OC(C)(C)C)c1nnc(C)n1-2 [NCGC00250412-19] | -154
5 | CCC(=O)O[C@]1(C(=O)CO)CC[C@H]2[C@@H]3CCC4=CC(=O)CC[C@]4(C)[C@H]3CC[C@@]21C + Cc1sc2c(c1C)C(c1ccc(Cl)cc1)=N[C@@H](CC(=O)OC(C)(C)C)c1nnc(C)n1-2 [NCGC00250412-19] | -194
6 | O=C(/C=C/c1c(C(=O)O)[nH]c2cc(Cl)cc(Cl)c12)Nc1ccccc1 + Cc1sc2c(c1C)C(c1ccc(Cl)cc1)=N[C@@H](CC(=O)OC(C)(C)C)c1nnc(C)n1-2 [NCGC00250412-19] | -30.8
7 | N[C@H]1CC[C@H](Nc2nc(Nc3ccc(C(=O)N4CCCCC4)cc3)c3ncn(-c4cccc(F)c4)c3n2)CC1 + Cc1sc2c(c1C)C(c1ccc(Cl)cc1)=N[C@@H](CC(=O)OC(C)(C)C)c1nnc(C)n1-2 [NCGC00250412-19] | -89.1
8 | C#CCN(C)[C@H](C)Cc1ccccc1 + Cc1sc2c(c1C)C(c1ccc(Cl)cc1)=N[C@@H](CC(=O)OC(C)(C)C)c1nnc(C)n1-2 [NCGC00250412-19] | -30.8
9 | N#Cc1c(NC(=O)c2cccc3ccccc23)sc2c1CCCC2 + Cc1sc2c(c1C)C(c1ccc(Cl)cc1)=N[C@@H](CC(=O)OC(C)(C)C)c1nnc(C)n1-2 [NCGC00250412-19] | -155
10 | c1ccc2c(CN3CCNCC3)cccc2c1 + Cc1sc2c(c1C)C(c1ccc(Cl)cc1)=N[C@@H](CC(=O)OC(C)(C)C)c1nnc(C)n1-2 [NCGC00250412-19] | 3.2
11 | Cn1ccc2cc3c(cc21)CCN3C(=O)Nc1cccnc1 + Cc1sc2c(c1C)C(c1ccc(Cl)cc1)=N[C@@H](CC(=O)OC(C)(C)C)c1nnc(C)n1-2 [NCGC00250412-19] | -55.2
12 | CC(C)(C)C(=O)Oc1ccc2c(c1)nc(NC(=O)c1cccc([N+](=O)[O-])c1)n2CCCO + Cc1sc2c(c1C)C(c1ccc(Cl)cc1)=N[C@@H](CC(=O)OC(C)(C)C)c1nnc(C)n1-2 [NCGC00250412-19] | 119
13 | COC(=O)Nc1nc2cc([S+]([O-])c3ccccc3)ccc2[nH]1 (centres undefined) + Cc1sc2c(c1C)C(c1ccc(Cl)cc1)=N[C@@H](CC(=O)OC(C)(C)C)c1nnc(C)n1-2 [NCGC00250412-19] | -257
14 | C[C@@H]1O[C@@H](O[C@@H]2C=C3CC[C@@H]4[C@H](CC[C@]5(C)[C@@H](c6ccc(=O)oc6)CC[C@]45O)[C@@]3(C)CC2)[C@H](O)[C@H](O)[C@H]1O + Cc1sc2c(c1C)C(c1ccc(Cl)cc1)=N[C@@H](CC(=O)OC(C)(C)C)c1nnc(C)n1-2 [NCGC00250412-19] | -176
15 | Nc1ccn([C@@H]2CS[C@H](CO)O2)c(=O)n1 + Cc1sc2c(c1C)C(c1ccc(Cl)cc1)=N[C@@H](CC(=O)OC(C)(C)C)c1nnc(C)n1-2 [NCGC00250412-19] | 96.2
16 | COc1ccccc1OCC(O)COC(N)=O (centres undefined) + Cc1sc2c(c1C)C(c1ccc(Cl)cc1)=N[C@@H](CC(=O)OC(C)(C)C)c1nnc(C)n1-2 [NCGC00250412-19] | -128
17 | OC[C@@H](O)[C@@H](O)[C@@H](O)CO + Cc1sc2c(c1C)C(c1ccc(Cl)cc1)=N[C@@H](CC(=O)OC(C)(C)C)c1nnc(C)n1-2 [NCGC00250412-19] | -189
18 | O=C(Nc1ccccc1)Nc1ccc(-c2ccc(C(=O)[C@@H]3CCC[C@H]3C(=O)O)cc2)cc1 + Cc1sc2c(c1C)C(c1ccc(Cl)cc1)=N[C@@H](CC(=O)OC(C)(C)C)c1nnc(C)n1-2 [NCGC00250412-19] | 195
19 | CN(C)C/C=C/C(=O)Nc1cc2c(Nc3ccc(F)c(Cl)c3)ncnc2cc1O[C@H]1CCOC1 + Cc1sc2c(c1C)C(c1ccc(Cl)cc1)=N[C@@H](CC(=O)OC(C)(C)C)c1nnc(C)n1-2 [NCGC00250412-19] | -361
20 | COc1ccccc1[C@H](c1cccc2ccccc12)[C@@](C)(C#N)C(=O)N1CCC(c2cccc(C(F)(F)F)c2)CC1 + Cc1sc2c(c1C)C(c1ccc(Cl)cc1)=N[C@@H](CC(=O)OC(C)(C)C)c1nnc(C)n1-2 [NCGC00250412-19] | -352
21 | O=C(O)CO.[NH2-].[NH2-].[Pt+2] + Cc1sc2c(c1C)C(c1ccc(Cl)cc1)=N[C@@H](CC(=O)OC(C)(C)C)c1nnc(C)n1-2 [NCGC00250412-19] | -152
22 | CC(C)(C)OC(=O)CN(Cc1ccc(Cl)cc1)Cc1ccc([N+](=O)[O-])s1 + Cc1sc2c(c1C)C(c1ccc(Cl)cc1)=N[C@@H](CC(=O)OC(C)(C)C)c1nnc(C)n1-2 [NCGC00250412-19] | 27
23 | O=C(Nc1ccccc1Br)N[C@@H]1CCN(c2ccc(C(F)(F)F)cn2)C1 + Cc1sc2c(c1C)C(c1ccc(Cl)cc1)=N[C@@H](CC(=O)OC(C)(C)C)c1nnc(C)n1-2 [NCGC00250412-19] | -195
24 | O=C(NOCC(O)CO)c1cc(Br)c(F)c(F)c1Nc1ccc(I)cc1F (centres undefined) + Cc1sc2c(c1C)C(c1ccc(Cl)cc1)=N[C@@H](CC(=O)OC(C)(C)C)c1nnc(C)n1-2 [NCGC00250412-19] | -137

Some of the entries above in a different format.
C[C@@H]1O[C@@H](O[C@@H]2C=C3CC[C@@H]4[C@H](CC[C@]5(C)[C@@H](c6ccc(=O)oc6)CC[C@]45O)[C@@]3(C)CC2)[C@H](O)[C@H](O)[C@H]1O + Cc1sc2c(c1C)C(c1ccc(Cl)cc1)=N[C@@H](CC(=O)OC(C)(C)C)c1nnc(C)n1-2 [NCGC00250412-19]
  excess over highest single agent: -176
Nc1ccn([C@@H]2CS[C@H](CO)O2)c(=O)n1 + Cc1sc2c(c1C)C(c1ccc(Cl)cc1)=N[C@@H](CC(=O)OC(C)(C)C)c1nnc(C)n1-2 [NCGC00250412-19]
  excess over highest single agent: 96.2
